# Results are given in words; binding and its absence hold for the method and conditions named. In cells and extracts the contact can be indirect. Some results given as binding are weak or reduced against the parent protein; the word gives no strength.
# Sequences of proteins named here, by UniProt entry; tags and fusion partners are left off.
# UniProt Q14160: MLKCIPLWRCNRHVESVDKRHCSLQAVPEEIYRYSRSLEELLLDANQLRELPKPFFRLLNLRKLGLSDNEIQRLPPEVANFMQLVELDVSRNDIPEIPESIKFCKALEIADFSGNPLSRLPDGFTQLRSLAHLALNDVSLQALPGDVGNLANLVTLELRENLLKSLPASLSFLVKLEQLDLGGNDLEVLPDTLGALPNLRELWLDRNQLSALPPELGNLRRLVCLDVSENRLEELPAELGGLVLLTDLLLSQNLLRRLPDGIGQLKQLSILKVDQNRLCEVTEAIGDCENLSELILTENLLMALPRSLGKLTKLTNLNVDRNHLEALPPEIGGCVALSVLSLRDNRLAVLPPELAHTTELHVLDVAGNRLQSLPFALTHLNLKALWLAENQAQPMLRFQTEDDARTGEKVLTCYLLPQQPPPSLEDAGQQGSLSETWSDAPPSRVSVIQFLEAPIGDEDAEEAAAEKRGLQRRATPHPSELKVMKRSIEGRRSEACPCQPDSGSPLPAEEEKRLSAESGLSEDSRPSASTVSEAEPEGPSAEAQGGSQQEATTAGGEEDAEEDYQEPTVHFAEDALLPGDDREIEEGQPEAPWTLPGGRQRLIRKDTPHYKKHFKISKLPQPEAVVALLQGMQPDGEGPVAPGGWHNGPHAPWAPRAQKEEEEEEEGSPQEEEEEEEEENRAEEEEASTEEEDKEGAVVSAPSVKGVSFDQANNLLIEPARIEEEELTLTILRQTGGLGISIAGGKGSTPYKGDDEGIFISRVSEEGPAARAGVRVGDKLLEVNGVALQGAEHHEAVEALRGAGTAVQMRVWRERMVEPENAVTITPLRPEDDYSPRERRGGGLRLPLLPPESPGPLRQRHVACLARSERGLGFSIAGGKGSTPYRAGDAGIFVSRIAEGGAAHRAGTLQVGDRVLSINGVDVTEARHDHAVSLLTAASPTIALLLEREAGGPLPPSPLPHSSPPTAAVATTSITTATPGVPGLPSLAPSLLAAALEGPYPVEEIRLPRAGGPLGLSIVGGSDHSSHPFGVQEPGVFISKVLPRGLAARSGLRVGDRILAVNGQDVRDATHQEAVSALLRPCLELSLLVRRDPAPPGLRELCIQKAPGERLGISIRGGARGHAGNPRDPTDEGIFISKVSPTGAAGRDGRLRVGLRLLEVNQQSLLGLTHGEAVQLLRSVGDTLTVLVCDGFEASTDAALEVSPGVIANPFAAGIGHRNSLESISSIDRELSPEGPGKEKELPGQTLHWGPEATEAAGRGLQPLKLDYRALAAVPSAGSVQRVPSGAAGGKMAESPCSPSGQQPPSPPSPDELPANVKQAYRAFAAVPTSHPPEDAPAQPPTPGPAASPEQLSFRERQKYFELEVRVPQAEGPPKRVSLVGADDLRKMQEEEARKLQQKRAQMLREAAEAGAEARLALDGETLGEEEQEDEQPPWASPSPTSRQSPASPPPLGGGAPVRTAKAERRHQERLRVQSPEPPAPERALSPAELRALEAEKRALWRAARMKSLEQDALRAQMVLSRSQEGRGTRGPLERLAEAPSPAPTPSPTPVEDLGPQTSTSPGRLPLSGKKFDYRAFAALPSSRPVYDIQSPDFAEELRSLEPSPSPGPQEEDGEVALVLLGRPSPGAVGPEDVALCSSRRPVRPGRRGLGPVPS
# UniProt Q8TDM6: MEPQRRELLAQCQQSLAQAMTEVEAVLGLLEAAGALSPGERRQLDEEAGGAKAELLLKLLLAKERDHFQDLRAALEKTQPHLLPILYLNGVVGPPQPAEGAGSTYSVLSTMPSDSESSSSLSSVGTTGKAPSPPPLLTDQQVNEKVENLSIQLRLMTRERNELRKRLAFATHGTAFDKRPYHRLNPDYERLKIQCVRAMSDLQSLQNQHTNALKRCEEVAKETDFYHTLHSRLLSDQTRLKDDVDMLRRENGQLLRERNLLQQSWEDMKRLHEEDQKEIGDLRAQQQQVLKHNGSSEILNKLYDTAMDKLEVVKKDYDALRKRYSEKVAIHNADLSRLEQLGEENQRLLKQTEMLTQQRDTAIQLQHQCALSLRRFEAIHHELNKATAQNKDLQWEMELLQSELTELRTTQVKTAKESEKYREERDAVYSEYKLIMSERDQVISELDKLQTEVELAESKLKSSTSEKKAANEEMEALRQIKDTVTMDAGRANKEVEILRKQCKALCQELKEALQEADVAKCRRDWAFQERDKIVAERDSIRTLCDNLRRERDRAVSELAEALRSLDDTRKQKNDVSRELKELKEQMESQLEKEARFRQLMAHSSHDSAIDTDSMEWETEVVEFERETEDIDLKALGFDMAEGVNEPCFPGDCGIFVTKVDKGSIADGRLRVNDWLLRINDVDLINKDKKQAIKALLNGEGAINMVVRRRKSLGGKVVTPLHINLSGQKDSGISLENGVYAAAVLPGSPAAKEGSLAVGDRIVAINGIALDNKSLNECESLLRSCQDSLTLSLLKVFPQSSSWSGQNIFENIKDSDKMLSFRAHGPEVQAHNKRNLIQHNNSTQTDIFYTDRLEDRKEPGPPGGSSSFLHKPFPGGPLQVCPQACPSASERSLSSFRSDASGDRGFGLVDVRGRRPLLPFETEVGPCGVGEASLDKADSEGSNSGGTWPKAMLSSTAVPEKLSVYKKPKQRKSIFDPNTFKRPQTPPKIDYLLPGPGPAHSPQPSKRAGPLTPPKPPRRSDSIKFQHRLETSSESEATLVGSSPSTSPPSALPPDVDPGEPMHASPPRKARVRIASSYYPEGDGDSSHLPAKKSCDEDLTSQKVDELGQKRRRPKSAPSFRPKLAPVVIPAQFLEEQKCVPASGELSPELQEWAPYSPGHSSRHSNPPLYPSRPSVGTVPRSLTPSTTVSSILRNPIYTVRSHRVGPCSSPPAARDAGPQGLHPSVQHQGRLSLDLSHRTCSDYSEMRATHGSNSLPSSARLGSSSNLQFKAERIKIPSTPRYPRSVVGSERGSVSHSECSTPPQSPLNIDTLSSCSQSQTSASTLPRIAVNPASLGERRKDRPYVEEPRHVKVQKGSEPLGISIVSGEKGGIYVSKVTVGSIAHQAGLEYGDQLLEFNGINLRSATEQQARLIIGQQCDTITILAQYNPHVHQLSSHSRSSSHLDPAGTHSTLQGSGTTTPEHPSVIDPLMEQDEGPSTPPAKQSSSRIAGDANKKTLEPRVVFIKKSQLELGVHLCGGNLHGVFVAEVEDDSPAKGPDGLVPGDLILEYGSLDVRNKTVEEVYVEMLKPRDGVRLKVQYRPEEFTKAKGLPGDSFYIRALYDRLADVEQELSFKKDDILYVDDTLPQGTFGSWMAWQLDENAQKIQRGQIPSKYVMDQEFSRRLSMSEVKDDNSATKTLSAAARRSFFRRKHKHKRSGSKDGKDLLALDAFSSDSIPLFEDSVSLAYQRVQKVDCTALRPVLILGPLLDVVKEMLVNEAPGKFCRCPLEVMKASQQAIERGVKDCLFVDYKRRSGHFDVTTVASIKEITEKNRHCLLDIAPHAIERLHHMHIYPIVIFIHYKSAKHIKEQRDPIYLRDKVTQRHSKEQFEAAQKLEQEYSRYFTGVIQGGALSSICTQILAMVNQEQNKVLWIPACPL
# Molecular target: Scribble (human (endogenous in MCF10A)) (UniProt Q14160)
# Experiment: co-IP; endogenous proteins in NC and MCF10A-shDLG5 (DLG5 knock-down) cells, detected by western blot; which protein was precipitated not given
substance,measurement,value
Discs Large Homolog 5 (DLG5) (from UniProt Q8TDM6 1-1919),binding,binds

# Source: paper PMC5294562
